Laboratory results: US20230235075A1
Results are given in words; binding and its absence hold for the method and conditions named. Some entries that bind do so weakly or less than the wild type.

Chains of the proteins cited; added tags and fusions are not shown. Lines headed by an entry give the natural chain unless they say otherwise; changes in a name come on top. Residues count along the entry.
UniProt Q9NPY3, residues 22-580: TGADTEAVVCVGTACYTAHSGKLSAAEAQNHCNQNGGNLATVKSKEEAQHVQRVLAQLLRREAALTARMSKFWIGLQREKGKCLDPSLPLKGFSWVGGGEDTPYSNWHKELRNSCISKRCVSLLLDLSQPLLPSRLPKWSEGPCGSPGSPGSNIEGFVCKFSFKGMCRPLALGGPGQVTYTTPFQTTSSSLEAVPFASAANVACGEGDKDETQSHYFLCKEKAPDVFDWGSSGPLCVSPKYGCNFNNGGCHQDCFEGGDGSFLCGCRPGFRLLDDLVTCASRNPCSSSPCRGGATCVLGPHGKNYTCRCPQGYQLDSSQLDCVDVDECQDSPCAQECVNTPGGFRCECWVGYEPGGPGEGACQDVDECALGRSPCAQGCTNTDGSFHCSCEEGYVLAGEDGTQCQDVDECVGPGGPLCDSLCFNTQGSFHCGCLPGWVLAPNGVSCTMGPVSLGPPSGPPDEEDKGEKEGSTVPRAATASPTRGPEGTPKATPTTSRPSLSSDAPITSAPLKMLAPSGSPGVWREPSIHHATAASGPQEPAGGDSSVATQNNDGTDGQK

Columns and labels:
[1] = target: Human CD93 recombinant protein (Sino Biological Inc, Catalog #12589-H08H) (human) (UniProt Q9NPY3); experiment: ELISA, His-tagged human CD93 coated at 1 µg/mL, anti-human Fc HRP
[2] = target: cynomolgus CD93 protein (made in-house) (cynomolgus); experiment: BLI (Octet QKe), biotinylated cynomolgus CD93 on streptavidin sensors
[3] = target: cynomolgus CD93 protein (made in-house) (cynomolgus); experiment: summary table, column 'Cyno Cross (EEISA)', ELISA
[4] = target: cynomolgus CD93 protein (made in-house) (cynomolgus); experiment: BLI (Octet QKe), biotinylated CD93 on streptavidin sensors

B1: 7F3-hIgG1 (antibody, V domains shown)
VH: QVQLQQSGADLVRPGASVKLSCKASGYTFTDYEMHWVKQTPVYGLEWIGGIDPETGDTAYNQNFKGKATLTADKSSSAAYMELRSLTSEDSAVYYCTNYGNLYYYAMDYWGQGTSVTVSS
VL: ENVLTQSPAIMSASPGEKVTMTCRASSSVSSSYLHWYQQKSGASPKLWIYSTSNLAFGVPARFSGSGSGTSYSLTISSVEAEDAATYYCQQYSGYPLTFGSGTKLEIK
With B1 the binding [1] was “binds”.

B2: 5H9 (antibody, IgG2a, V domains shown)
VH: QVQLQQSGPDLVKPGASVKISCKASGYAFSTYWMNWVKQRPGKGLEWIGRIFPGDGDANYNGKFKGKATLTADKSSSTAYMQLSSLTSEDSAVYFCTRTGAAYDFDPFPYWGQGTLVTVSA
VL: DIVMTQAAFSNPVTLGTSASISCSSSKSLLHSNGVTYLYWYLQRPGQSPQLLIYRMSNLASGVPDRFSGSGSGTDFTLRISRVEAEDVGIYYCAQMLERPFTFGSGTKLEIK
In the case of B2, the binding [2] is reported as “binds” and the binding [3] is reported as “binds”.

B3: 12H4 (antibody, V domains shown)
VH: EVQLQQSGPELVKPGASVKVSCKASGYTFTDYYIHWVKQRPGQGLEWIGEIYPGSDDAYYNEKFKGKATLTADKSSSTAYMQLSSLTSEDSAVYFCTRETTATAYWGQGTLVTVSA
VL: QIVLTQSPAIMSASPGEKVTITCSASSSVSLIYWFQQKPGTSPKLWIYSTSNLASGVPARFSGSGSGTSYSLTISRMEAEDAATYYCQQRSGYPPTFGGGTKLEIK
With B3 the binding [2] was “binds” and the binding [3] was “binds”.

B4: 16B6 (antibody, V domains shown)
VH: QVQLQQSGPELVKPGASVKISCKASGYAFSRSWMNWVKQRPGKGLEWIGWIYPGDGDTNYNGKFKGKATLTADKSSSTAYMQLSSLTSEDSAAYFCARSATLPYWYFDVWGAGTTVTVSS
VL: DIKMTQSPSSMYASLGERVTITCKASQDIKSYLSWYQQKPWKSPKTLIYYATNLADGVPSRFSGSGSGQDYSLTISSLGSDDTATYYCLQHVESPWTFGGGTKLEIK
B4 was tested, and the binding [2] was “binds” and the binding [3] was “binds”.

B5: 16G9 (antibody, V domains shown)
VH: EVQLQQSGPELVKPGASVKMSCKASGYTFTDYYMNWVKQSHGKSLEWIGRVNPNNGGKTYNQKFKGKATLTVDKSLSTAYMQLNSLTSEDSAVYYCARWRLRPVDYGMDYWGQGTSVTVSS
VL: DIVLTQSPASLAVSLGQRATISCRASQSVSTSSYSYMHWYQQKPGQPPKLLIKYASNLESGVPARFSGSGSGTDFTLNIHPVEEEDTATYYCQHSWEIPFTFGSGTKLEIK
For B5, the binding [2] was “binds” and the binding [3] was “binds”.

B6: 17A7 (antibody, V domains shown)
VH: QVQLQQSGPELVKPGASVKISCKGSGYAFSTYWMNWVKQRPGKGLEWIGRIFPGDGDTDYDGKFKGKATLTADKSSNTAYMQLSSLTSEDSAVYFCARTGAAYEFDPFPYWGQGTLVTVSA
VL: DIVMTQAAFSNPVTLGTSASISCSSTKSLLHSSGITYLYWYLQRPGQSPQLLIYRMSNLASGVPDRFSGSGSGTDFTLRISRVEAEDVGVYYCAQMLERPFTFGSGTKLEIK
For B6, the binding [2] was “binds” and the binding [3] was “binds”.

B7: 17B10 (hybridoma) (antibody, V domains shown)
VH: QVQLQQSGPELVKPGASVKISCKASGYAFSSYWLNWVKQRPGKGLEWFGRIYPGDGDTDYNGKFKGKATLTADKSSSTAYMQLRSLTSEDSAVYFCVRGDGYWAMDYWGQGTSVTVSS
VL: DIVMTQAAFSNPVTLGTSASISCRFSKSLLHSNGITYLYWYLQKPGQSPQLLIYQMSNLASGVPDRFSSSGSGTDFTLRISRVEAEDVGVYYCAQNLELPWTFGGGTKLEIK
With B7 the binding [2] was “binds” and the binding [3] was “binds”.

B8: 17E6 (antibody, V domains shown)
VH: EVQLQQSGPELVKPGASVKMSCKASGYTFTSYVIHWVKQKPGQGLEWIGYINPYSDYTQYNEKFKGKATLTSDKSSSTAYMELSSLTSEDSAVYSCARRADGNPYAMDYWGQGTSVTVSS
VL: DIVMTQSHKFMSTSVGDRVSTTCKASQDVSTAVVWYQQKPGQSPKLLIYSASYRYTGVPDRFTGSGSGTDFTFTITSVQAEDLAVYYCQQHYSTPFTFGSGTKLEIK
For B8, the binding [2] was “binds” and the binding [3] was “binds”.

B9: 19B5 (antibody, V domains shown)
VH: DVNLVESGGGLVKLGGSLKLSCAASGFTFSNYYMSWVRQSPEKRLEWVATISNNGDSTYYLDTVKGRFTISRDSAENTLYLQMSSLISEDTAVYYCTRVGTGFTYWGQGTLVTVSA
VL: DIVLTQSPATLSVTPGDSVSLSCRASQSINNYLHWYQQRSHESPRLLIKFASQSISDIPSRFSGSGSGTDFTLSINSIETEDFGMYFCQQSNSWPLTFGAGTKLELK
In the case of B9, the binding [2] is reported as “binds” and the binding [3] is reported as “binds”.

B10: 19E12 (antibody, V domains shown)
VH: QVQLQQSGAELVRPGASVKLSCKASGYTFTDYEMHWVRQTPVHGLEWIGGIDPETGGTAYNQKFKGKATLTADKSSSTAYMELRSLTSEDSAVYYCTRGAWFAYWGQGTLVTVSA
VL: QAVVTQESALTTSPGETVTLTCRSSTGAVTTSNSANWVQEKPDHLFTGLIGGTNNRAPGVPARFSGSLIGDKAALTITGAQTEDEAIYFCALWYNNHFVFGGGTKLTVL
B10 was tested, and the binding [2] was “binds” and the binding [3] was “binds”.

B11: 20C7 (antibody, V domains shown)
VH: EVQLQQSGPELVNPGASVKMSCKASGYTFTAYVMHWVKQKPGQGLEWIGYIFPYNDGTEYNEKFKGKATLTSDKSSSTAYMELSSLTSEDSAVYYCARRTDGNPYTMDYWGQGTSVTVSS
VL: DIVMTQSHKFMSTSVGDRVSITCKASQDVSTAVAWYQQKPGQSPKLLIHSASYRYTGVPDRFTGRGSGTDFTFTISSVQAEDLAVYYCQQHYSTPFTFGSGTKLEIK
With B11 the binding [2] was “binds” and the binding [3] was “binds”.

B12: 10B1 (antibody, V domains shown)
VH: QVQLKQSGPGLVQPSQSLSITCTVSDFSLSSFGVNWVRQPPGKGLEWLGVIWSGGSTDYNVAFISRLSISKDNSKSQVFFKMNNLQADDTAIYYCARNWRYDGYFYAMDYWGQGTSVTVSS
VL: DIVMTQSQKFMSTSTGDRVSVTCKASQNVGTNVAWYQQKPGQSPKALIYSASYRFIGVPDRFTGSGSGTDFTLTITNVQSEDLAEYFCQQYNRNPITFGSGTKLEIK
In the case of B12, the binding [4] is reported as “binds” and the binding [3] is reported as “binds”.

B13: 7F3 (hybridoma) (antibody, IgG1, V domains shown)
VH: QVQLQQSGADLVRPGASVKLSCKASGYTFTDYEMHWVKQTPVYGLEWIGGIDPETGDTAYNQNFKGKATLTADKSSSAAYMELRSLTSEDSAVYYCTNYGNLYYYAMDYWGQGTSVTVSS
VL: ENVLTQSPAIMSASPGEKVTMTCRASSSVSSSYLHWYQQKSGASPKLWIYSTSNLAFGVPARFSGSGSGTSYSLTISSVEAEDAATYYCQQYSGYPLTFGSGTKLEIK
For B13, the binding [4] was “binds” and the binding [3] was “binds”.
